The text below walks through data of paper PMC8167298, “Structural Investigations of Human A2M Identify a Hollow Native Conformation That Underlies Its Distinctive Protease-Trapping Mechanism” (Molecular & Cellular Proteomics : MCP, 2021).

For the assay, the target named is T1, A2M^3K, recombinant A2M with the Arg704Lys, Arg715Lys and Arg719Lys mutations (human) (UniProt P01023).
T1 sequence: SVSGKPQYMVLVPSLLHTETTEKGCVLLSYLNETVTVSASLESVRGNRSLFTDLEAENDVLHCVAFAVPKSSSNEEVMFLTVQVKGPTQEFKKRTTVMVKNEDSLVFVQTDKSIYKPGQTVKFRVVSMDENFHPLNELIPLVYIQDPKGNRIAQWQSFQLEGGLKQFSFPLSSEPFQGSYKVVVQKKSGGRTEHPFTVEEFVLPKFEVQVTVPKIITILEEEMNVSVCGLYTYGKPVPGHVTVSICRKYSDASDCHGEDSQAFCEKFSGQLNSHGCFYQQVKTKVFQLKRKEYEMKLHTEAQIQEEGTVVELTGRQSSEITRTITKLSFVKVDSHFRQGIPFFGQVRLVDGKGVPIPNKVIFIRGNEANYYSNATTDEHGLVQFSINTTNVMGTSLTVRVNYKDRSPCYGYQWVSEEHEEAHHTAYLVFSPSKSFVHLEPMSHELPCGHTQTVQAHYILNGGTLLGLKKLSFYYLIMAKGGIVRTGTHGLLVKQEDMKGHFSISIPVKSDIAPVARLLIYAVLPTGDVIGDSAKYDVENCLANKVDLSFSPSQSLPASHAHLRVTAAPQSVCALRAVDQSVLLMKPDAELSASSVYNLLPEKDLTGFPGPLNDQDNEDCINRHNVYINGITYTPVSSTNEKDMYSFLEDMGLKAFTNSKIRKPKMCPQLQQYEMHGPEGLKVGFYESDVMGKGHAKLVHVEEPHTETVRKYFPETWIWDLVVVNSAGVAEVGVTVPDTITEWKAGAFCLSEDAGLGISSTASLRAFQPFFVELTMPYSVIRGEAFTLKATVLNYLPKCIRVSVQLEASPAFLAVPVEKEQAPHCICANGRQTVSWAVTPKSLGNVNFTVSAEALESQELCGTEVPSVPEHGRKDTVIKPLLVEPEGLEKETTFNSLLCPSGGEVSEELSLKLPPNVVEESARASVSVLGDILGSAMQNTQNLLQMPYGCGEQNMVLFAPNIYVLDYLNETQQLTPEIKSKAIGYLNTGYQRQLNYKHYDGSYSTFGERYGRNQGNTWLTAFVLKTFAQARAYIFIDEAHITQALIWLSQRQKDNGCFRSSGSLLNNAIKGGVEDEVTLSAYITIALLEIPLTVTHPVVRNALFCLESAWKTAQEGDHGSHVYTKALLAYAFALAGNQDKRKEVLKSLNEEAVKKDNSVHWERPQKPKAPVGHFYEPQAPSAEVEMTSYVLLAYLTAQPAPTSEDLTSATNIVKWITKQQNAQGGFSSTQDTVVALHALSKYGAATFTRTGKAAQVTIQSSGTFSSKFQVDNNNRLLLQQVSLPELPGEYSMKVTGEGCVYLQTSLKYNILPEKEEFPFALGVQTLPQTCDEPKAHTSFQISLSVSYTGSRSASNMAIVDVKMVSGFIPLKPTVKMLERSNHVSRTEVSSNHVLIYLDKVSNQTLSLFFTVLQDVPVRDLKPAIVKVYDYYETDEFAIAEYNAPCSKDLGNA
The assay is described as follows: reducing SDS-PAGE of covalent protease conjugates; A2M incubated with protease; covalent conjugation through the thiol ester seen on reducing SDS-PAGE; both purified.

No constants are given. Whether binding was seen depends on the method and setting. Binding calls can cover weak binding; strength is not graded here.

On to “LysC, a lysine-specific protease (enzyme)”, for which the binding result is recorded as “binds”.
